Data from the ROBIN nucleic acid binder screens, doi:10.1002/anie.202211358.

Oligonucleotides screened, 5′ to 3′:
PreQ1: PreQ1 riboswitch RNA pseudoknot, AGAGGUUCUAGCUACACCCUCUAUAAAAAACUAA. From B. subtilis. About 170 hits among about 24,000 compounds.
TPP: TPP riboswitch RNA three-way junction, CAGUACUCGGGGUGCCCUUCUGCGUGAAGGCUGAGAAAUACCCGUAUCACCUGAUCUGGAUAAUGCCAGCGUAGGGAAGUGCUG. About 160 hits among about 24,000 compounds.
SAM-II: SAM-II riboswitch RNA pseudoknot, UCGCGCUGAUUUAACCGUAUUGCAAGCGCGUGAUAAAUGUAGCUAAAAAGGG. About 200 hits among about 21,000 compounds.

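Compounds were printed on reactive glass slides in duplicate spots, a dye-labelled oligonucleotide was laid over them, and the fluorescence left after washing was read. For the PreQ1, TPP and SAM-II riboswitches the laboratory earlier reported (doi:10.1038/s41467-019-09493-3) 1 µM RNA, 2 h, and a rule that included a mean Z-score above 3 (spot signal-to-noise against the whole library), a score well above that on a control array, and duplicate spots agreeing (coefficient of variation under 100). The data file gives only the calls; its cut-offs may differ, and compounds hitting several targets are kept. The calls come from the array alone, and fixing a compound to the slide can hide its binding.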 “active” means called a hit, “inactive” means screened and not called a hit. Compounds were drawn at random from those tested, without regard to their results. A target missing from an entry has no call listed here.

For Cn1c(=O)[nH]c(=O)c2c1nc(N1CCCCC1)n2CCO the calls were PreQ1: inactive; TPP: inactive. Calls for CN(C)CCCNCC(O)Cn1c2ccccc2c2ccccc21 (stereo not shown) are PreQ1: inactive; TPP: inactive; SAM-II: inactive. CSCCC(Nc1ncnc2sc3c(c12)CCCC3)C(=O)O (stereo not shown) was scored PreQ1: inactive; TPP: inactive; SAM-II: inactive. Cc1cc(Nc2ccc3c(c2)OCO3)c2ccc(C(F)(F)F)cc2n1 was scored PreQ1: inactive; TPP: inactive; SAM-II: inactive. For CCN1CCN(C(=O)c2ccc3c(c2)CCCN3)[C@H]2CS(=O)(=O)C[C@H]21 the calls were PreQ1: inactive; TPP: inactive; SAM-II: inactive. For Cc1cc(C)n(-c2nc3ccccc3nc2Nc2ccc(Cl)cc2)n1 the calls were PreQ1: inactive; TPP: inactive; SAM-II: inactive. With Fc1ccc(C(c2ccc(F)cc2)N2CCN(CC=Cc3ccccc3)CC2)cc1 the screen gave PreQ1: inactive; TPP: inactive; SAM-II: inactive. For Cc1ccc(NC(=O)c2sc3nc4c(c(-c5ccco5)c3c2N)CCCC4)cc1 the calls were PreQ1: inactive; TPP: inactive; SAM-II: inactive.

Calls for Cc1cnc(N)nc1NCc1csc(N2CCCC2)n1 are PreQ1: inactive; TPP: inactive; SAM-II: inactive. Nc1ccnc(N2CCC3(CCCN(C4CCCC4)C3=O)C2)n1 (stereo not shown) was scored PreQ1: inactive; TPP: inactive; SAM-II: inactive. Calls for O=C1CC(Nc2ccc(Oc3ccccc3)cc2)C(=O)N1c1ccc(Cl)cc1 (stereo not shown) are PreQ1: inactive; TPP: inactive; SAM-II: inactive. CCOC(=O)c1[nH]c(C)c(C(=O)N2[C@H]3CCNC[C@@H]2CC3)c1C was scored PreQ1: inactive; TPP: inactive; SAM-II: inactive. With CCOc1cc(C2C(C#N)=C(N)Oc3[nH]nc(COC)c32)ccc1OC (stereo not shown) the screen gave PreQ1: inactive; TPP: inactive; SAM-II: inactive. For CCOC(=O)c1cnc2ccc(C)cc2c1Nc1ccc(C(=O)O)cc1 the calls were PreQ1: inactive; TPP: inactive; SAM-II: inactive. Calls for Cc1nnc(SCC(=O)N2CC[C@@](C)(O)[C@@H](O)C2)o1 are PreQ1: inactive; TPP: inactive; SAM-II: inactive. Calls for C=CCn1c(SCC(=O)N2CCN(CCO)CC2)nc2sc(C)c(C)c2c1=O are PreQ1: inactive; TPP: inactive; SAM-II: inactive.

For Cc1ccc2[nH]c(-c3cc(N)ccc3Cl)nc2c1 the calls were PreQ1: inactive; TPP: inactive; SAM-II: inactive. Calls for COc1ccc(C(=O)c2sc3nc(-c4ccc(OC)cc4)cc(C(F)F)c3c2N)cc1 are PreQ1: inactive; TPP: inactive; SAM-II: inactive. With CCOC(=O)c1sc2c(c1N)CCCC2 the screen gave PreQ1: inactive; TPP: inactive; SAM-II: inactive. Calls for COc1cccc(CN2c3ccccc3C3=C(C(c4cccc(C)c4)C(C#N)=C(N)O3)S2(=O)=O)c1 (stereo not shown) are PreQ1: inactive; TPP: inactive. Calls for COc1cccc(NC2c3ccccc3C(=O)N2c2ccc(Cl)cc2)c1 (stereo not shown) are PreQ1: inactive; TPP: inactive; SAM-II: inactive. With CC1(C)CC(=O)c2c(C(F)(F)F)nn(-c3ccc(C(N)=O)c(NC4CCC(OC(=O)CN)CC4)c3)c2C1 (stereo not shown) the screen gave PreQ1: inactive; TPP: inactive; SAM-II: inactive. O=C(CCc1cnccn1)N1CC[C@@H]2[C@@H](CCC(=O)N2CCCO)C1 was scored PreQ1: inactive; TPP: inactive; SAM-II: inactive. With NCCn1cc(C(=O)NCC(O)CN2CCCCCC2)nn1 (stereo not shown) the screen gave PreQ1: inactive; TPP: inactive; SAM-II: inactive.

CC(C)(C)n1cnc2cc(NCc3ccccn3)ccc21 was scored PreQ1: inactive; TPP: inactive; SAM-II: inactive. For Cn1c(=O)c(Nc2ccc(Cl)cc2)c2c3c(cccc31)C(=O)c1ccccc1-2 the calls were PreQ1: inactive; TPP: inactive; SAM-II: inactive. For CC(O)=C(C#N)C(=O)Nc1ccc(C(F)(F)F)cc1 the calls were PreQ1: inactive; TPP: inactive; SAM-II: inactive. For CCCc1nc2c([nH]1)c(=O)n(C)c(=O)n2C the calls were PreQ1: inactive; TPP: inactive; SAM-II: inactive. For CCCCc1oc2ccc(NS(C)(=O)=O)cc2c1C(=O)c1ccc(OCCCN(CCCC)CCCC)cc1 the calls were PreQ1: inactive; TPP: inactive; SAM-II: inactive. With COc1ccc(C(=O)N2CCNCC2C(=O)N2CCOCC2)cc1Cl (stereo not shown) the screen gave PreQ1: inactive; TPP: inactive; SAM-II: inactive. For O=C(CN(c1cccc([N+](=O)[O-])c1)S(=O)(=O)c1ccccc1)NC1CCCCC1O (stereo not shown) the calls were PreQ1: inactive; TPP: inactive; SAM-II: inactive. With O=C(CCCCCCNC(=O)c1cnc(N(c2ccccc2)c2ccccc2)nc1)NO the screen gave PreQ1: inactive; TPP: inactive; SAM-II: inactive.

Calls for Cc1cccc(Nc2nc(-c3ccncc3)cs2)c1 are PreQ1: inactive; TPP: inactive; SAM-II: inactive. O=C(NOCCO)c1ccc2cncn2c1Nc1ccc(I)cc1F was scored PreQ1: inactive; TPP: inactive; SAM-II: inactive. Calls for Cc1ccc(NCCN(C)C)c2c(=O)c3cc(O)ccc3sc12.I are PreQ1: inactive; TPP: inactive; SAM-II: inactive. Calls for CNc1ncc(C(=O)N2CCN(c3ccncc3)CC(O)C2)cn1 (stereo not shown) are PreQ1: inactive; TPP: inactive; SAM-II: inactive. O=S1(=O)C[C@@H]2[C@H](C1)N(CCCCOc1ccccc1)CCN2CCO was scored PreQ1: inactive; TPP: inactive; SAM-II: inactive.

The first 3 entries again:

- Cn1c(=O)[nH]c(=O)c2c1nc(N1CCCCC1)n2CCO | PreQ1: inactive; TPP: inactive
- CN(C)CCCNCC(O)Cn1c2ccccc2c2ccccc21 (stereo not shown) | PreQ1: inactive; TPP: inactive; SAM-II: inactive
- CSCCC(Nc1ncnc2sc3c(c12)CCCC3)C(=O)O (stereo not shown) | PreQ1: inactive; TPP: inactive; SAM-II: inactive